# The supplement of paper PMC8728848
# Some of the results follow.
# B1: EULS2 M3 (Oryza sativa) (protein)
# chain: MVYCRANPNYAMTARNGAVVLAPANPKDEYQHWIKDMRWSTSIKDEEGYPAFALVNKATGQAIKHSLGQSHPVRLVPYNPEVMDESVLWTESRDVGNGFRCIRMVNNIYLNFDAFHGDKYHGGVRDGTDIVLWKLCEGDSLRWKIQPYYILEQKLISEEDLNSAVDHHHHHH
# How the values were obtained:
# Experiment in all cases: glycan array binding signal (z-score within array); higher = stronger binding
# Settings in all cases: glycan notation: IUPAC condensed, linker removed
# [1] = target: Neu5Ac(a2-3)Gal(b1-4)GlcNAc(b1-2)[Neu5Ac(a2-3)Gal(b1-4)GlcNAc(b1-4)]Man(a1-3)[GlcNAc(b1-4)][Neu5Ac(a2-3)Gal(b1-4)GlcNAc(b1-4)Man(a1-6)]Man(b1-4)GlcNAc(b1-4)GlcNAc
# Outline: (§1)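 Glycan array binding is given as a within-array Z-score, which can be read as non-binding when negative. The arrays, 3228 of them, came from the Consortium for Functional Glycomics database and were retained only where the protein sequence was available. Z-scores were averaged across arrays of the same protein sequence at different concentrations or buffers and across linkers.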
# [2] = target: Neu5Ac(a2-3)Gal(b1-4)GlcNAc(b1-2)[Neu5Ac(a2-3)Gal(b1-4)GlcNAc(b1-6)]Man(a1-6)[Neu5Ac(a2-3)Gal(b1-4)GlcNAc(b1-2)Man(a1-3)]Man(b1-4)GlcNAc(b1-4)GlcNAc
# Outline: as §1
# [3] = target: Neu5Ac(a2-3)Gal(b1-4)GlcNAc(b1-2)[Neu5Ac(a2-3)Gal(b1-4)GlcNAc(b1-6)]Man(a1-6)[Neu5Ac(a2-3)Gal(b1-4)GlcNAc(b1-2)Man(a1-3)][GlcNAc(b1-4)]Man(b1-4)GlcNAc(b1-4)GlcNAc
# Outline: as §1
# [4] = target: Neu5Ac(a2-3)Gal(b1-4)GlcNAc(b1-3)Gal
# Outline: as §1
# [5] = target: Neu5Ac(a2-3)Gal(b1-4)GlcNAc(b1-3)Gal(b1-3)GlcNAc
# Outline: as §1
# [6] = target: Neu5Ac(a2-3)Gal(b1-4)GlcNAc(b1-3)Gal(b1-4)GlcNAc
# Outline: as §1
# [7] = target: Neu5Ac(a2-3)Gal(b1-4)GlcNAc(b1-3)Gal(b1-4)GlcNAc(b1-2)Man(a1-3)[Neu5Ac(a2-3)Gal(b1-4)GlcNAc(b1-3)Gal(b1-4)GlcNAc(b1-2)Man(a1-6)]Man(b1-4)GlcNAc(b1-4)GlcNAc
# Outline: as §1
# [8] = target: Neu5Ac(a2-3)Gal(b1-4)GlcNAc(b1-3)Gal(b1-4)GlcNAc(b1-3)Gal(b1-4)GlcNAc
# Outline: as §1
# [9] = target: Neu5Ac(a2-3)Gal(b1-4)GlcNAc(b1-3)Gal(b1-4)GlcNAc(b1-3)Gal(b1-4)GlcNAc(b1-2)Man(a1-3)[Neu5Ac(a2-3)Gal(b1-4)GlcNAc(b1-3)Gal(b1-4)GlcNAc(b1-3)Gal(b1-4)GlcNAc(b1-2)Man(a1-6)]GalNAc
# Outline: as §1
# [10] = target: Neu5Ac(a2-3)Gal(b1-4)GlcNAc(b1-3)Gal(b1-4)GlcNAc(b1-3)GalNAc
# Outline: as §1
# [11] = target: Neu5Ac(a2-3)Gal(b1-4)GlcNAc(b1-3)Gal(b1-4)GlcNAc(b1-3)[Neu5Ac(a2-3)Gal(b1-4)GlcNAc(b1-3)Gal(b1-4)GlcNAc(b1-6)]GalNAc
# Outline: as §1
# [12] = target: Neu5Ac(a2-3)Gal(b1-4)GlcNAc(b1-3)Gal(b1-4)GlcNAc(b1-6)[Gal(b1-3)]GalNAc
# Outline: as §1
# [13] = target: Neu5Ac(a2-3)Gal(b1-4)GlcNAc(b1-3)Gal(b1-4)[Fuc(a1-3)]GlcNAc
# Outline: as §1
# [14] = target: Neu5Ac(a2-3)Gal(b1-4)GlcNAc(b1-3)GalNAc
# Outline: as §1
# [15] = target: Neu5Ac(a2-3)Gal(b1-4)GlcNAc(b1-3)[Neu5Ac(a2-3)Gal(b1-4)GlcNAc(b1-6)]GalNAc
# Outline: as §1
# [16] = target: Neu5Ac(a2-3)Gal(b1-4)GlcNAc(b1-6)GalNAc
# Outline: as §1
# [17] = target: Neu5Ac(a2-3)Gal(b1-4)GlcNAc(b1-6)[Gal(b1-3)]GalNAc
# Outline: as §1
# [18] = target: Neu5Ac(a2-3)Gal(b1-4)GlcNAc(b1-6)[Neu5Ac(a2-3)Gal(b1-3)]GalNAc
# Outline: as §1
# [19] = target: Neu5Ac(a2-3)Gal(b1-4)GlcNAc6S
# Outline: as §1
# [20] = target: Neu5Ac(a2-3)Gal(b1-4)[Fuc(a1-3)]GlcNAc
# Outline: as §1
# [21] = target: Neu5Ac(a2-3)Gal(b1-4)[Fuc(a1-3)]GlcNAc(b1-2)Man
# Outline: as §1
# [22] = target: Neu5Ac(a2-3)Gal(b1-4)[Fuc(a1-3)]GlcNAc(b1-3)Gal
# Outline: as §1
# [23] = target: Neu5Ac(a2-3)Gal(b1-4)[Fuc(a1-3)]GlcNAc(b1-3)Gal(b1-4)GlcNAc
# Outline: as §1
# [24] = target: Neu5Ac(a2-3)Gal(b1-4)[Fuc(a1-3)]GlcNAc(b1-3)Gal(b1-4)[Fuc(a1-3)]GlcNAc(b1-3)Gal(b1-4)[Fuc(a1-3)]GlcNAc
# Outline: as §1
# [25] = target: Neu5Ac(a2-3)Gal(b1-4)[Fuc(a1-3)]GlcNAc(b1-3)GalNAc
# Outline: as §1
# [26] = target: Neu5Ac(a2-3)Gal(b1-4)[Fuc(a1-3)]GlcNAc(b1-6)[Gal(b1-3)]GalNAc
# Outline: as §1
# [27] = target: Neu5Ac(a2-3)Gal(b1-4)[Fuc(a1-3)]GlcNAc(b1-6)[Neu5Ac(a2-3)Gal(b1-3)]GalNAc
# Outline: as §1
# [28] = target: Neu5Ac(a2-3)Gal(b1-4)[Fuc(a1-3)]GlcNAc6S
# Outline: as §1
# [29] = target: Neu5Ac(a2-3)Gal6S(b1-4)GlcNAc
# Outline: as §1
# [30] = target: Neu5Ac(a2-3)Gal6S(b1-4)[Fuc(a1-3)]GlcNAc
# Outline: as §1
# Neu5Ac(a2-3)GalNAc = target: Neu5Ac(a2-3)GalNAc
# Outline: as §1
# [31] = target: Neu5Ac(a2-3)GalNAc(b1-4)GlcNAc
# Outline: as §1
# [32] = target: Neu5Ac(a2-3)[GalNAc(b1-4)]Gal(b1-4)Glc
# Outline: as §1
# [33] = target: Neu5Ac(a2-3)[GalNAc(b1-4)]Gal(b1-4)GlcNAc
# Outline: as §1
# [34] = target: Neu5Ac(a2-3)[GalNAc(b1-4)]Gal(b1-4)GlcNAc(b1-3)GalNAc
# Outline: as §1
# [35] = target: Neu5Ac(a2-3)[Neu5Ac(a2-6)]GalNAc
# Outline: as §1
# Neu5Ac(a2-6)Gal = target: Neu5Ac(a2-6)Gal
# Outline: as §1
# [36] = target: Neu5Ac(a2-6)Gal(b1-3)GlcNAc(b1-3)[Gal(b1-4)GlcNAc(b1-6)]Gal(b1-4)Glc
# Outline: as §1
# Neu5Ac(a2-6)Gal(b1-4)Glc = target: Neu5Ac(a2-6)Gal(b1-4)Glc
# Outline: as §1
# [37] = target: Neu5Ac(a2-6)Gal(b1-4)GlcNAc
# Outline: as §1
# [38] = target: Neu5Ac(a2-6)Gal(b1-4)GlcNAc(b1-2)Man
# Outline: as §1
# [39] = target: Neu5Ac(a2-6)Gal(b1-4)GlcNAc(b1-2)Man(a1-3)Man(b1-4)GlcNAc(b1-4)GlcNAc
# Outline: as §1
# [40] = target: Neu5Ac(a2-6)Gal(b1-4)GlcNAc(b1-2)Man(a1-3)[Gal(b1-4)GlcNAc(b1-2)Man(a1-6)]Man(b1-4)GlcNAc(b1-4)GlcNAc
# Outline: as §1
# [41] = target: Neu5Ac(a2-6)Gal(b1-4)GlcNAc(b1-2)Man(a1-3)[GlcNAc(b1-2)Man(a1-6)]Man(b1-4)GlcNAc(b1-4)GlcNAc
# Outline: as §1
# [42] = target: Neu5Ac(a2-6)Gal(b1-4)GlcNAc(b1-2)Man(a1-3)[GlcNAc(b1-4)][Neu5Ac(a2-6)Gal(b1-4)GlcNAc(b1-2)Man(a1-6)]Man(b1-4)GlcNAc(b1-4)GlcNAc
# Outline: as §1
binder,measurement,setting,value
B1,glycan array binding signal (z-score),[1],-0.265
same,glycan array binding signal (z-score),[2],-0.063
same,glycan array binding signal (z-score),[3],0.415
same,glycan array binding signal (z-score),[4],-0.143
same,glycan array binding signal (z-score),[5],-0.422
same,glycan array binding signal (z-score),[6],-0.786
same,glycan array binding signal (z-score),[7],0.561
same,glycan array binding signal (z-score),[8],-1.62
same,glycan array binding signal (z-score),[9],0.667
same,glycan array binding signal (z-score),[10],-0.368
same,glycan array binding signal (z-score),[11],-0.135
same,glycan array binding signal (z-score),[12],-0.345
same,glycan array binding signal (z-score),[13],-0.416
same,glycan array binding signal (z-score),[14],-0.286
same,glycan array binding signal (z-score),[15],0.127
same,glycan array binding signal (z-score),[16],1.04
same,glycan array binding signal (z-score),[17],-0.23
same,glycan array binding signal (z-score),[18],0.062
same,glycan array binding signal (z-score),[19],-0.422
same,glycan array binding signal (z-score),[20],0.452
same,glycan array binding signal (z-score),[21],0.599
same,glycan array binding signal (z-score),[22],0.557
same,glycan array binding signal (z-score),[23],-0.586
same,glycan array binding signal (z-score),[24],-0.22
same,glycan array binding signal (z-score),[25],-0.173
same,glycan array binding signal (z-score),[26],-0.216
same,glycan array binding signal (z-score),[27],0.296
same,glycan array binding signal (z-score),[28],-0.425
same,glycan array binding signal (z-score),[29],-0.387
same,glycan array binding signal (z-score),[30],-0.427
same,glycan array binding signal (z-score),Neu5Ac(a2-3)GalNAc,-0.085
same,glycan array binding signal (z-score),[31],-0.054
same,glycan array binding signal (z-score),[32],-0.273
same,glycan array binding signal (z-score),[33],-0.121
same,glycan array binding signal (z-score),[34],0.143
same,glycan array binding signal (z-score),[35],-0.159
same,glycan array binding signal (z-score),Neu5Ac(a2-6)Gal,-0.482
same,glycan array binding signal (z-score),[36],-0.647
same,glycan array binding signal (z-score),Neu5Ac(a2-6)Gal(b1-4)Glc,-0.276
same,glycan array binding signal (z-score),[37],-1.1
same,glycan array binding signal (z-score),[38],-0.17
same,glycan array binding signal (z-score),[39],-0.302
same,glycan array binding signal (z-score),[40],-0.422
same,glycan array binding signal (z-score),[41],-0.195
same,glycan array binding signal (z-score),[42],-0.444

# Given with bars between the fields: entries from further up
binder | measurement | setting | value
B1 | glycan array binding signal (z-score) | [4] | -0.143
same | glycan array binding signal (z-score) | [5] | -0.422
